From US20090012088A1 (priority 2005, published 2009)
Some results were stated once for a whole list of compounds, not compound by compound.

Chains of the proteins cited; added tags and fusions are not shown. Lines headed by an entry give the natural chain unless they say otherwise; changes in a name come on top.
UniProt O02776: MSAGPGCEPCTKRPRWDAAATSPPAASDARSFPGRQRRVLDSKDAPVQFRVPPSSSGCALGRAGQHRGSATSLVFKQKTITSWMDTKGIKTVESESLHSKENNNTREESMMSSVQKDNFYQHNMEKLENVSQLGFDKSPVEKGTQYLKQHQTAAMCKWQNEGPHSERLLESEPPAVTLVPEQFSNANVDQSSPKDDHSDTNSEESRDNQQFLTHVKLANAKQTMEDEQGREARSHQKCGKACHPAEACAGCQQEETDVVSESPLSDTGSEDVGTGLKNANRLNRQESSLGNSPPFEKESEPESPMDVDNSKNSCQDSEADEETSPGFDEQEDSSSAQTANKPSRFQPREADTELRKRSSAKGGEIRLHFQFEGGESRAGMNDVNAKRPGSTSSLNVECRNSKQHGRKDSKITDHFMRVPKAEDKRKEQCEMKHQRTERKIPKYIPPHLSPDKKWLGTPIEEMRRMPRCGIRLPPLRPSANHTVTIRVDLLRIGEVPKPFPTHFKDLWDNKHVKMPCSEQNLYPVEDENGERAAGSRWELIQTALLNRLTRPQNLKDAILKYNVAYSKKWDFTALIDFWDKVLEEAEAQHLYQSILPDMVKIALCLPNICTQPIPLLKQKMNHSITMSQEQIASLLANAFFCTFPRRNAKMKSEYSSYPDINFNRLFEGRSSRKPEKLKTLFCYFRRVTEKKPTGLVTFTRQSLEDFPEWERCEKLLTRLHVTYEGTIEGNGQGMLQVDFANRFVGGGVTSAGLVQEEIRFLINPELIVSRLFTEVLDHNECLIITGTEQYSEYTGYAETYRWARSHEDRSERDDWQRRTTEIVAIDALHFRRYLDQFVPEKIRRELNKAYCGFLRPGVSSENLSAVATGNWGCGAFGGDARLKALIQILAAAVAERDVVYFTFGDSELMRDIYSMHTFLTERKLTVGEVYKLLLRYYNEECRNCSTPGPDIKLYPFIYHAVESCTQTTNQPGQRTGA

Target: PARG (Bos taurus, UniProt O02776)
Assay: Inhibition of PARG activity in vitro (quantitation of free ADP-ribose with benzamidine, fluorescence)
Type: biochemical
Set-up: purchased Biomol
Procedure: PARG assay: Production and purification of PAR. PARP-1 (20 units) is added to 900 μL of PARP assay buffer containing 1 mM NAD^+ and 22.5 μg activated DNA. This reaction was run at 37° C. for 30 min and stopped by the addition of 300 μL of cold 100% trichloroacetic acid. The proteins thus precipitated are collected by centrifugation at 18,000 g for 30 min at 4° C. After removal of the supernatant, 1 mL of 1 M NaOH and 100 mM EDTA are added to the pellet and incubated for 2 h at 37° C. to cleave the PAR from the PARP protein acceptor. Then 9 mL of PAR buffer A (250 mM ammonium acetate, 6 M guanidinium HCl, 10 mM EDTA, pH 9.0) is added to the PAR and applied to a PROSEP-PB (Millipore) phenyl boronate column that is pre-equilibrated with PAR buffer A. The flowthrough is then reapplied to the column to ensure that all PAR is bound. The column is then washed with 25 mL of PAR buffer A, followed by 10 mL of PAR buffer B (1 M ammonium acetate and 1 mM EDTA, pH 9.0). The bound PAR is eluted with 4 mL of water collected in 1-mL fractions. Fractions containing PAR are pooled and concentrated. The concentration, measured as monomer, is determined by measuring the absorbance at 258 nm. PAR has an extinction coefficient of 13,500 cm^−1 at 258 nm. […]

Substance: 4-Amino-5-dimethylamino-2-phenyl-2H-pyridazin-3-one [PIP-1]
- IC50: 400 to 500 nM
